Measured values reported in publication PMC8763653.
These are yes or no findings as the source states them, for the method shown. Binding seen in cells or lysates may run through a third protein. Some binding calls cover weakened binding; strength is not graded here.

Protein sequences, listed by entry. Tags and fused reporters are not part of them. Lines headed by an entry give the natural chain unless they say otherwise; changes in a name come on top. Chains listed by the source or under a name are the forms on record and can include a tag or linker. Residues count along the entry.
UniProt Q14627, residues 27-380: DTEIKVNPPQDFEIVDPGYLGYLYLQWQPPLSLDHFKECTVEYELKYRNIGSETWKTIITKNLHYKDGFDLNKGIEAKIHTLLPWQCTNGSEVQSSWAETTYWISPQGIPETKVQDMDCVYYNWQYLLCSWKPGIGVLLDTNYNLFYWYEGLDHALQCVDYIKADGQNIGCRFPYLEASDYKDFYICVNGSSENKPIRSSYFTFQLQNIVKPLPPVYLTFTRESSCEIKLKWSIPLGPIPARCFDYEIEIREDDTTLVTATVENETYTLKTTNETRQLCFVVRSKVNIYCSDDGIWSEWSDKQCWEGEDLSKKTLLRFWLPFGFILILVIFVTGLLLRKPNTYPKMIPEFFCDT
6×Myc‐tagged human CHI3L1 (chitinase 3 like1), full length (P36222, residues 22-383): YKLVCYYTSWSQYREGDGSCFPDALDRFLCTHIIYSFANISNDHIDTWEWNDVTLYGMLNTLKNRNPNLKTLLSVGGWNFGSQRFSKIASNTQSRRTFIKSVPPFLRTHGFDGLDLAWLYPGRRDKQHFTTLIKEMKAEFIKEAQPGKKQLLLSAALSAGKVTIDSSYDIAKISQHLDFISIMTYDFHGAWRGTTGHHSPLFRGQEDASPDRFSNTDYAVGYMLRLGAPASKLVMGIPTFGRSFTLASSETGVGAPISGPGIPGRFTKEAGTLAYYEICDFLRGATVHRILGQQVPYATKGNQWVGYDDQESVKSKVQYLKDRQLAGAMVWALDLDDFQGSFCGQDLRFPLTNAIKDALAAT
6×Myc‐tagged human CHI3L1 Δ278‐294 (P36222, form named): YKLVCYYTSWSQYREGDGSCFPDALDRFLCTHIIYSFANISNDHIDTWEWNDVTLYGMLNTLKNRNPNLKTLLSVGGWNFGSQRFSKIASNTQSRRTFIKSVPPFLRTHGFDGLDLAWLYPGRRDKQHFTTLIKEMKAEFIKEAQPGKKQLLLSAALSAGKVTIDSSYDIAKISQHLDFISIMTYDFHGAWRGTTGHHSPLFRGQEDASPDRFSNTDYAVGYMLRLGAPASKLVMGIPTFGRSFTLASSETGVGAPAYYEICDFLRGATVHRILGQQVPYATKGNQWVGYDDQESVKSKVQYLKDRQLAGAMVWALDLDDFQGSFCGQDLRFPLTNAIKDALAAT

Legend:
[1] = biological target: T1, IL‐13Rα1 (human (endogenous in A549)) (UniProt P78552); assay: co-IP; A549 cells transfected with FL or Δ278‐294 CHI3L1‐6×Myc, with or without 5 μM K284 for 24 h; immunoprecipitation with anti‐IL‐13Rα1 IgG or anti‐IL‐13Rα2 IgG, blot with anti‐Myc IgG; NET‐NL lysis buffer (50 mM Tris pH 7.5, 5 mM EDTA, 150 mM NaCl, 1 mM DTT, 0.01% NP‐40), 4 °C overnight
T1 sequence: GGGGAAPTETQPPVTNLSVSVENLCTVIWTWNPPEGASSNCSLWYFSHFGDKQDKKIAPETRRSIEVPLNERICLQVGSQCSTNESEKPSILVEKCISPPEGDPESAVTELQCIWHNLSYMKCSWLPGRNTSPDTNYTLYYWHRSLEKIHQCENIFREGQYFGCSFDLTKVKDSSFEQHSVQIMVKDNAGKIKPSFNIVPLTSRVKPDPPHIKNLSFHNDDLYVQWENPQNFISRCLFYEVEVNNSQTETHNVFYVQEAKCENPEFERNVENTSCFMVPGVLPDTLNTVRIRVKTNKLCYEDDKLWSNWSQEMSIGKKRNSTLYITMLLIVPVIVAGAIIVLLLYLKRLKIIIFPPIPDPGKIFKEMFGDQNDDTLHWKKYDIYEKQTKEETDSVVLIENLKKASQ

[2] = biological target: interleukin‐13 receptor subunit alpha‐2 (IL‐13Rα2) (human (endogenous in A549)) (UniProt Q14627); assay: as above

Row | binding [1] | binding [2] | Substance
1 | binds | – | 6×Myc‐tagged human CHI3L1 (chitinase 3 like1), full length (from UniProt P36222 22-383)
2 | – | binds | 6×Myc‐tagged human CHI3L1 Δ278‐294 (from UniProt P36222 22-383)
